Results are given in words; binding and its absence hold for the method and conditions named. Binding seen in cells or lysates may run through a third protein. Some entries that bind do so weakly or less than the wild type.
Target: Microtubule actin crosslinking factor 1 (MACF1) (mouse (endogenous in mouse MSCs)) (UniProt Q9QXZ0)
Test: co-IP; anti-MACF1 immunoprecipitation from osteo-induced wild type MSCs, SMAD7 detected in the precipitate

Protein sequences, listed by entry. Tags and fused reporters are not part of them.
UniProt O35253: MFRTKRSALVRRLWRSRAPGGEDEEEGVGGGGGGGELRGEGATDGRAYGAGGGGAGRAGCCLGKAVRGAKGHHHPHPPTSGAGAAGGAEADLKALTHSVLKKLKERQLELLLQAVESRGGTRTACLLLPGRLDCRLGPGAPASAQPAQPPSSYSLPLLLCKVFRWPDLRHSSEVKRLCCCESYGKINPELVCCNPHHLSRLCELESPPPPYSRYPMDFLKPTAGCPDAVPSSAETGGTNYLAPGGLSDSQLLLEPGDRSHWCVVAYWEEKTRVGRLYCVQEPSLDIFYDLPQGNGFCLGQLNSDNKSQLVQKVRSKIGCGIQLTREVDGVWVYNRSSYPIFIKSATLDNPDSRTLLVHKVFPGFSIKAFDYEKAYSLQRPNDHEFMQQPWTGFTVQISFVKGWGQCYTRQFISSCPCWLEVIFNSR

SMAD family member 7 (SMAD7) (from UniProt O35253 1-426)
binding: binds

Source: PMC7140458
